Measured values from publication PMC4594993.
Results are given in words; binding and its absence hold for the method and conditions named. In cells and extracts the contact can be indirect. A result given as binding can be weak or reduced; the word gives no strength. Sequences can lack the tags named with a protein.

Molecular target: T1, Flotillin-1-eGFP (human) (UniProt O75955)
T1 sequence: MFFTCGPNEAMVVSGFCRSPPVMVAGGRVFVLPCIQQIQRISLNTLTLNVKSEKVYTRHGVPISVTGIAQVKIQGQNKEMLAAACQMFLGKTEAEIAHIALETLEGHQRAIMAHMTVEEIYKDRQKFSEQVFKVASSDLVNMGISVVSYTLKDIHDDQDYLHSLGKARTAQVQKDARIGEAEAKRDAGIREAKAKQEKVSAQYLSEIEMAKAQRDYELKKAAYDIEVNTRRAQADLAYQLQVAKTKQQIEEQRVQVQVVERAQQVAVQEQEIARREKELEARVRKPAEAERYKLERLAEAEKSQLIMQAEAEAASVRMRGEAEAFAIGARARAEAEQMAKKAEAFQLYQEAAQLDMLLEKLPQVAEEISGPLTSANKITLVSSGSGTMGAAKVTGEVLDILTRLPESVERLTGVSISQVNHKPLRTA
Assay: FRET or BRET; FRET imaging in SMMC-7721 cells co-transfected with acceptor (CD147-dsRed1) and donor (Flotillin-1-eGFP); CoA and CoB from single-transfected donor and acceptor samples

binding: binds
Substance: CD147-dsRed1 (pdsRed1-N1-CD147)
